# Data taken from the supplement of paper PMC8728848.
# The list shows a part of the results.
# B1: OS9 (Arabidopsis thaliana) (protein)
# chain: MRGSHHHHHHGMASMTGGQQMGRDLYDDDDKSRLQIFPAHLVGTFSRNNREPKYKIEFLPEDSPFHPGDNLESMVMLDKHGNRFLCYLPKEEKATSGWTSSQQNISTVMMETQQLVKLKTPDELLQPLSEKCLFRQEGWWSYEFCHQKYVRQLHVEDENKIVQEFFLGTFDPEATAAFNQTVSDASTDASQRYHSHVYTNGTTCDLTGSPAEVEVRFVCAETRAMVTSITELSTCKYALTVQCPTLCKHPLFQLEKPVSHTIHCNAIPVEEDATRNKEEQAVDESPKMIADS
# Key:
# Experiment in all cases: glycan array binding signal (z-score within array); higher = stronger binding
# Settings in all cases: glycan notation: IUPAC condensed, linker removed; mutation: R201A
# [1] = target: GlcNAc(b1-2)[GlcNAc(b1-4)]Man(a1-3)[GlcNAc(b1-4)][GlcNAc(b1-2)Man(a1-6)]Man(b1-4)GlcNAc(b1-4)GlcNAc
# In short: (§1)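 Glycan array data were curated from 3228 arrays in the Consortium for Functional Glycomics database and kept only where the protein sequence was available. Glycan names were converted to IUPAC-condensed notation, and columns mapping to the same glycan were averaged. The binding signal is a within-array Z-score, averaged across arrays of the same protein sequence at different concentrations or buffers and across linkers. Negative Z-scores can be read as non-binding.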
# [2] = target: GlcNAc(b1-2)[GlcNAc(b1-4)]Man(a1-3)[GlcNAc(b1-4)][GlcNAc(b1-2)[GlcNAc(b1-6)]Man(a1-6)]Man(b1-4)GlcNAc(b1-4)GlcNAc
# In short: as §1
# [3] = target: GlcNAc(b1-2)[GlcNAc(b1-4)]Man(a1-3)[GlcNAc(b1-4)][GlcNAc(b1-2)[GlcNAc(b1-6)]Man(a1-6)]Man(b1-4)GlcNAc(b1-4)[Fuc(a1-6)]GlcNAc
# In short: as §1
# [4] = target: GlcNAc(b1-2)[GlcNAc(b1-6)]Man(a1-6)[GlcNAc(b1-2)Man(a1-3)]Man(b1-4)GlcNAc(b1-4)GlcNAc
# In short: as §1
# [5] = target: GlcNAc(b1-2)[GlcNAc(b1-6)]Man(a1-6)[GlcNAc(b1-2)Man(a1-3)]Man(b1-4)GlcNAc(b1-4)[Fuc(a1-6)]GlcNAc
# In short: as §1
# [6] = target: GlcNAc(b1-2)[GlcNAc(b1-6)]Man(a1-6)[GlcNAc(b1-4)][GlcNAc(b1-2)Man(a1-3)]Man(b1-4)GlcNAc(b1-4)GlcNAc
# In short: as §1
# GlcNAc(b1-3)Fuc = target: GlcNAc(b1-3)Fuc
# In short: as §1
# GlcNAc(b1-3)Gal = target: GlcNAc(b1-3)Gal
# In short: as §1
# [7] = target: GlcNAc(b1-3)Gal(b1-3)GalNAc
# In short: as §1
# GlcNAc(b1-3)Gal(b1-4)Glc = target: GlcNAc(b1-3)Gal(b1-4)Glc
# In short: as §1
# [8] = target: GlcNAc(b1-3)Gal(b1-4)GlcNAc
# In short: as §1
# [9] = target: GlcNAc(b1-3)Gal(b1-4)GlcNAc(b1-2)Man(a1-3)[GlcNAc(b1-3)Gal(b1-4)GlcNAc(b1-2)Man(a1-6)]Man(b1-4)GlcNAc(b1-4)GlcNAc
# In short: as §1
# [10] = target: GlcNAc(b1-3)Gal(b1-4)GlcNAc(b1-2)Man(a1-3)[GlcNAc(b1-3)Gal(b1-4)GlcNAc(b1-2)Man(a1-6)]Man(b1-4)GlcNAc(b1-4)[Fuc(a1-6)]GlcNAc
# In short: as §1
# [11] = target: GlcNAc(b1-3)Gal(b1-4)GlcNAc(b1-2)[GlcNAc(b1-3)Gal(b1-4)GlcNAc(b1-6)]Man(a1-6)[GlcNAc(b1-3)Gal(b1-4)GlcNAc(b1-2)Man(a1-3)]Man(b1-4)GlcNAc(b1-4)GlcNAc
# In short: as §1
# [12] = target: GlcNAc(b1-3)Gal(b1-4)GlcNAc(b1-3)Gal(b1-4)GlcNAc
# In short: as §1
# [13] = target: GlcNAc(b1-3)Gal(b1-4)GlcNAc(b1-3)Gal(b1-4)GlcNAc(b1-2)Man(a1-3)[GlcNAc(b1-3)Gal(b1-4)GlcNAc(b1-3)Gal(b1-4)GlcNAc(b1-2)Man(a1-6)]Man(b1-4)GlcNAc(b1-4)GlcNAc
# In short: as §1
# [14] = target: GlcNAc(b1-3)Gal(b1-4)GlcNAc(b1-3)Gal(b1-4)GlcNAc(b1-2)Man(a1-3)[GlcNAc(b1-3)Gal(b1-4)GlcNAc(b1-3)Gal(b1-4)GlcNAc(b1-2)Man(a1-6)]Man(b1-4)GlcNAc(b1-4)[Fuc(a1-6)]GlcNAc
# In short: as §1
# [15] = target: GlcNAc(b1-3)Gal(b1-4)GlcNAc(b1-3)Gal(b1-4)GlcNAc(b1-2)[GlcNAc(b1-3)Gal(b1-4)GlcNAc(b1-3)Gal(b1-4)GlcNAc(b1-6)]Man(a1-6)[GlcNAc(b1-3)Gal(b1-4)GlcNAc(b1-3)Gal(b1-4)GlcNAc(b1-2)Man(a1-3)]Man(b1-4)GlcNAc(b1-4)[Fuc(a1-6)]GlcNAc
# In short: as §1
# [16] = target: GlcNAc(b1-3)Gal(b1-4)GlcNAc(b1-3)Gal(b1-4)GlcNAc(b1-3)Gal(b1-4)GlcNAc(b1-2)Man(a1-3)[GlcNAc(b1-3)Gal(b1-4)GlcNAc(b1-3)Gal(b1-4)GlcNAc(b1-3)Gal(b1-4)GlcNAc(b1-2)Man(a1-6)]Man(b1-4)GlcNAc(b1-4)GlcNAc
# In short: as §1
# [17] = target: GlcNAc(b1-3)Gal(b1-4)GlcNAc(b1-3)Gal(b1-4)GlcNAc(b1-3)Gal(b1-4)GlcNAc(b1-2)Man(a1-3)[GlcNAc(b1-3)Gal(b1-4)GlcNAc(b1-3)Gal(b1-4)GlcNAc(b1-3)Gal(b1-4)GlcNAc(b1-2)Man(a1-6)]Man(b1-4)GlcNAc(b1-4)[Fuc(a1-6)]GlcNAc
# In short: as §1
# [18] = target: GlcNAc(b1-3)Gal(b1-4)GlcNAc(b1-3)Gal(b1-4)GlcNAc(b1-3)Gal(b1-4)GlcNAc(b1-2)[GlcNAc(b1-3)Gal(b1-4)GlcNAc(b1-3)Gal(b1-4)GlcNAc(b1-3)Gal(b1-4)GlcNAc(b1-6)]Man(a1-6)[GlcNAc(b1-3)Gal(b1-4)GlcNAc(b1-3)Gal(b1-4)GlcNAc(b1-3)Gal(b1-4)GlcNAc(b1-2)Man(a1-3)]Man(b1-4)GlcNAc(b1-4)[Fuc(a1-6)]GlcNAc
# In short: as §1
# [19] = target: GlcNAc(b1-3)Gal(b1-4)GlcNAc(b1-3)Gal(b1-4)GlcNAc(b1-3)Gal(b1-4)GlcNAc(b1-3)Gal(b1-4)GlcNAc(b1-2)Man(a1-3)[GlcNAc(b1-3)Gal(b1-4)GlcNAc(b1-3)Gal(b1-4)GlcNAc(b1-3)Gal(b1-4)GlcNAc(b1-3)Gal(b1-4)GlcNAc(b1-2)Man(a1-6)]Man(b1-4)GlcNAc(b1-4)GlcNAc
# In short: as §1
# [20] = target: GlcNAc(b1-3)Gal(b1-4)GlcNAc(b1-3)Gal(b1-4)GlcNAc(b1-3)Gal(b1-4)GlcNAc(b1-3)Gal(b1-4)GlcNAc(b1-2)Man(a1-3)[GlcNAc(b1-3)Gal(b1-4)GlcNAc(b1-3)Gal(b1-4)GlcNAc(b1-3)Gal(b1-4)GlcNAc(b1-3)Gal(b1-4)GlcNAc(b1-2)Man(a1-6)]Man(b1-4)GlcNAc(b1-4)[Fuc(a1-6)]GlcNAc
# In short: as §1
# [21] = target: GlcNAc(b1-3)Gal(b1-4)GlcNAc(b1-3)Gal(b1-4)GlcNAc(b1-3)Gal(b1-4)GlcNAc(b1-3)Gal(b1-4)GlcNAc(b1-2)[GlcNAc(b1-3)Gal(b1-4)GlcNAc(b1-3)Gal(b1-4)GlcNAc(b1-3)Gal(b1-4)GlcNAc(b1-3)Gal(b1-4)GlcNAc(b1-6)]Man(a1-6)[GlcNAc(b1-3)Gal(b1-4)GlcNAc(b1-3)Gal(b1-4)GlcNAc(b1-3)Gal(b1-4)GlcNAc(b1-3)Gal(b1-4)GlcNAc(b1-2)Man(a1-3)]Man(b1-4)GlcNAc(b1-4)[Fuc(a1-6)]GlcNAc
# In short: as §1
# [22] = target: GlcNAc(b1-3)Gal(b1-4)GlcNAc(b1-3)Gal(b1-4)GlcNAc(b1-3)GalNAc
# In short: as §1
# [23] = target: GlcNAc(b1-3)Gal(b1-4)GlcNAc(b1-3)GalNAc
# In short: as §1
# [24] = target: GlcNAc(b1-3)Gal(b1-4)GlcNAc(b1-3)[GlcNAc(b1-3)Gal(b1-4)GlcNAc(b1-3)]GalNAc
# In short: as §1
# [25] = target: GlcNAc(b1-3)Gal(b1-4)GlcNAc(b1-6)[Gal(b1-3)]GalNAc
# In short: as §1
# [26] = target: GlcNAc(b1-3)Gal(b1-4)GlcNAc(b1-6)[GlcNAc(b1-3)Gal(b1-3)]GalNAc
# In short: as §1
# [27] = target: GlcNAc(b1-3)Gal(b1-4)GlcNAc(b1-6)[GlcNAc(b1-3)]Gal(b1-4)GlcNAc
# In short: as §1
# GlcNAc(b1-3)GalNAc = target: GlcNAc(b1-3)GalNAc
# In short: as §1
# GlcNAc(b1-3)Man = target: GlcNAc(b1-3)Man
# In short: as §1
# [28] = target: GlcNAc(b1-3)[GlcNAc(b1-4)][GlcNAc(b1-6)]GlcNAc
# In short: as §1
# [29] = target: GlcNAc(b1-3)[GlcNAc(b1-6)]Gal(b1-4)GlcNAc
# In short: as §1
# [30] = target: GlcNAc(b1-3)[GlcNAc(b1-6)]GalNAc
# In short: as §1
# [31] = target: GlcNAc(b1-4)Gal(b1-4)GlcNAc
# In short: as §1
# GlcNAc(b1-4)GlcNAc = target: GlcNAc(b1-4)GlcNAc
# In short: as §1
# [32] = target: GlcNAc(b1-4)GlcNAc(b1-4)GlcNAc
# In short: as §1
binder,measurement,setting,value
B1,glycan array binding signal (z-score),[1],-0.368
same,glycan array binding signal (z-score),[2],0.68
same,glycan array binding signal (z-score),[3],-0.546
same,glycan array binding signal (z-score),[4],-0.781
same,glycan array binding signal (z-score),[5],-0.361
same,glycan array binding signal (z-score),[6],0.294
same,glycan array binding signal (z-score),GlcNAc(b1-3)Fuc,0.403
same,glycan array binding signal (z-score),GlcNAc(b1-3)Gal,-0.422
same,glycan array binding signal (z-score),[7],0.162
same,glycan array binding signal (z-score),GlcNAc(b1-3)Gal(b1-4)Glc,0.608
same,glycan array binding signal (z-score),[8],-0.104
same,glycan array binding signal (z-score),[9],0.147
same,glycan array binding signal (z-score),[10],2.59
same,glycan array binding signal (z-score),[11],-1.15
same,glycan array binding signal (z-score),[12],-0.275
same,glycan array binding signal (z-score),[13],0.393
same,glycan array binding signal (z-score),[14],0.868
same,glycan array binding signal (z-score),[15],0.683
same,glycan array binding signal (z-score),[16],-0.356
same,glycan array binding signal (z-score),[17],0.66
same,glycan array binding signal (z-score),[18],-0.201
same,glycan array binding signal (z-score),[19],-0.601
same,glycan array binding signal (z-score),[20],-0.796
same,glycan array binding signal (z-score),[21],-0.837
same,glycan array binding signal (z-score),[22],-0.437
same,glycan array binding signal (z-score),[23],0.036
same,glycan array binding signal (z-score),[24],-0.336
same,glycan array binding signal (z-score),[25],-0.524
same,glycan array binding signal (z-score),[26],-0.626
same,glycan array binding signal (z-score),[27],0.166
same,glycan array binding signal (z-score),GlcNAc(b1-3)GalNAc,-0.197
same,glycan array binding signal (z-score),GlcNAc(b1-3)Man,-0.811
same,glycan array binding signal (z-score),[28],-1.31
same,glycan array binding signal (z-score),[29],-0.217
same,glycan array binding signal (z-score),[30],0.649
same,glycan array binding signal (z-score),[31],0.805
same,glycan array binding signal (z-score),GlcNAc(b1-4)GlcNAc,8.22
same,glycan array binding signal (z-score),[32],0.6

# Some of the entries so far, as tab-separated lines:
binder	measurement	setting	value
B1	glycan array binding signal (z-score)	[6]	0.294
same	glycan array binding signal (z-score)	GlcNAc(b1-3)Fuc	0.403
same	glycan array binding signal (z-score)	GlcNAc(b1-3)Gal	-0.422
same	glycan array binding signal (z-score)	[7]	0.162
same	glycan array binding signal (z-score)	GlcNAc(b1-3)Gal(b1-4)Glc	0.608
same	glycan array binding signal (z-score)	[8]	-0.104
same	glycan array binding signal (z-score)	[9]	0.147
same	glycan array binding signal (z-score)	[10]	2.59
same	glycan array binding signal (z-score)	[11]	-1.15
same	glycan array binding signal (z-score)	[12]	-0.275
same	glycan array binding signal (z-score)	[13]	0.393
